HELM strings list residues between dots; [ac] is acetyl, [am] amide, other brackets name non-standard units.
Experiment: peptide made by a vendor
Settings: whole synthesis

## PEPTIDE1{L.S.L.I.A.A.A.G.K.E.T.I.R.Q.Y.L.K.N.E.I.K.K.K.G.R.K.A.V.I.A.W}$$$$V2.0
  purity (crude or final not stated): 95%

— patent US20210130417A1 (University of Notre Dame du Lac, priority 2017, published 2021)
